From the supplement of paper PMC4604168 (melanoma cell lines) come the findings set out here.

This is one part of the list. Repeats are few or missing, and single values can be far off.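 Imaging used 1,536-well plates; nuclei positive for cleaved PARP by antibody were divided by total DNA-stained nuclei to yield the apoptosis fraction. Doses for screening kept most cells viable, and cell lines differ markedly in resting and induced cleaved-PARP levels.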

For the experiment, the system named is SkMel5. Description: cleaved PARP positive nuclei fraction relative to DMSO control; melanoma cells; higher = more apoptosis. Particulars: library dose: low library concentration; 72 h.
As for `C=CCn1c(=O)c2cnc(Nc3ccc(N4CCN(C)CC4)cc3)nc2n1-c1cccc(C(C)(C)O)n1` + COc1ccc(COc2ccc(Cc3cnc(N)nc3N)cc2OC)cc1 [GW2580] (first compound 0.02 µM, partner dose 1 µM), the “cleaved PARP positive nuclei fraction” value was determined as 285%. The value for `NC(=O)Nc1cc(-c2cccc(F)c2)sc1C(=O)N[C@H]1CCCNC1` + Cn1cc(/C=C2\C(=O)Nc3cccnc32)c2ccccc21 [GW441756] (first compound 0.02 µM, partner dose 0.4 µM) was 75.5%; that for `CO[C@@H]1[C@H](N(C)C(=O)c2ccccc2)C[C@H]2O[C@]1(C)n1c3ccccc3c3c4c(c5c6ccccc6n2c5c31)C(=O)NC4` [Midostaurin] + O=C(O)C(=O)Nc1sc2c(c1C(=O)O)CCNC2 [TCS401] (first compound 0.08 µM, partner dose 1.66667 µM) was 63.6%; that for `C#Cc1cccc(Nc2ncnc3cc(OCCOC)c(OCCOC)cc23)c1` [erlotinib] + COc1cc2ncnc(Nc3ccc(Oc4ccccc4)cc3)c2cc1OC [SrcI1] (first compound 0.8 µM, partner dose 2 µM) was 95.8%.

Take `Cn1cncc1[C@@](N)(c1ccc(Cl)cc1)c1ccc2c(c1)c(-c1cccc(Cl)c1)cc(=O)n2C` [tipifarnib] + COc1ccc2c(c1)CCC1C2CCC2(C)C(NCCCCCCN3C(=O)C=CC3=O)CCC12 [U73122] (first compound 0.01 µM, partner dose 0.4 µM): the “cleaved PARP positive nuclei fraction” value was determined as 94.4%. Consider `O=C(Nc1cccc(Cl)c1)Nc1ncc(CCNc2ncnc3ccsc23)s1` + O=C(O)C(=O)Nc1sc2c(c1C(=O)O)CCNC2 [TCS401] (first compound 0.0008 µM, partner dose 1.66667 µM), for which the “cleaved PARP positive nuclei fraction” value came to 60.2%.
